Measurements published in the supplement of paper PMC12819154, “High-throughput peptide-centric local stability assay extends protein–ligand identification to membrane proteins, tissues and bacteria” (Nature Structural & Molecular Biology, 2025).
The list shows a part of the results. Most entries show no effect beyond the scatter of the controls.

Sequences of proteins named here, by UniProt entry; tags and fusion partners are left off. A change or cut given only in a name is not applied to a line headed by its entry.
UniProt Q9UHW9: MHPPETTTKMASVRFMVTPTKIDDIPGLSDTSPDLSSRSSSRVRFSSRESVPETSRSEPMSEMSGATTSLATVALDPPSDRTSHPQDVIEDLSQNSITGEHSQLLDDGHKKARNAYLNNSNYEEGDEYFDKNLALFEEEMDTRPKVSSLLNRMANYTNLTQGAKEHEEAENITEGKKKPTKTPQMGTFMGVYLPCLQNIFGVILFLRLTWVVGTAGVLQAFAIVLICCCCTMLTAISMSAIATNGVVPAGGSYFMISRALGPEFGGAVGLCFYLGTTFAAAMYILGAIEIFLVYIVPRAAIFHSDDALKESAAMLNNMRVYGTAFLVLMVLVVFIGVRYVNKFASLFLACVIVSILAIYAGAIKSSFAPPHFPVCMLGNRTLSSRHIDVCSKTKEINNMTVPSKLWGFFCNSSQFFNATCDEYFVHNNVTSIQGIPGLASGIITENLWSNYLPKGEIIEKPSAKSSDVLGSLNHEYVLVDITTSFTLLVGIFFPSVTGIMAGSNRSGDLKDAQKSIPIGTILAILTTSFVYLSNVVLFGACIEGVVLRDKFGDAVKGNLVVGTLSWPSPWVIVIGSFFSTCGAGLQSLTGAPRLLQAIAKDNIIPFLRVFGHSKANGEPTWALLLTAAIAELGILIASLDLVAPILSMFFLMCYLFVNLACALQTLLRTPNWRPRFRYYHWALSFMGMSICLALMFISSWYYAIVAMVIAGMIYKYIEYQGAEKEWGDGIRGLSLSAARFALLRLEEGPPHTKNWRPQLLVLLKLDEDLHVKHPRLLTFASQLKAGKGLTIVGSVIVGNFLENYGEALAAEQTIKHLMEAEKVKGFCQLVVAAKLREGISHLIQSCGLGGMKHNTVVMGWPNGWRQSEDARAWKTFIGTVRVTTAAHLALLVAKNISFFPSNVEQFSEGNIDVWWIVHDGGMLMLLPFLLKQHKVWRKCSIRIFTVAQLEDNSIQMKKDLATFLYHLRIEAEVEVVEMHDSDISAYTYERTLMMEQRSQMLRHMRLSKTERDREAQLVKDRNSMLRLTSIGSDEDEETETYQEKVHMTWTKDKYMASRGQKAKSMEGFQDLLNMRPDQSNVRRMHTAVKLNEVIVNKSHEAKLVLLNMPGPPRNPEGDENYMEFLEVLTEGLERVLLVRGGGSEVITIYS
UniProt Q9P243: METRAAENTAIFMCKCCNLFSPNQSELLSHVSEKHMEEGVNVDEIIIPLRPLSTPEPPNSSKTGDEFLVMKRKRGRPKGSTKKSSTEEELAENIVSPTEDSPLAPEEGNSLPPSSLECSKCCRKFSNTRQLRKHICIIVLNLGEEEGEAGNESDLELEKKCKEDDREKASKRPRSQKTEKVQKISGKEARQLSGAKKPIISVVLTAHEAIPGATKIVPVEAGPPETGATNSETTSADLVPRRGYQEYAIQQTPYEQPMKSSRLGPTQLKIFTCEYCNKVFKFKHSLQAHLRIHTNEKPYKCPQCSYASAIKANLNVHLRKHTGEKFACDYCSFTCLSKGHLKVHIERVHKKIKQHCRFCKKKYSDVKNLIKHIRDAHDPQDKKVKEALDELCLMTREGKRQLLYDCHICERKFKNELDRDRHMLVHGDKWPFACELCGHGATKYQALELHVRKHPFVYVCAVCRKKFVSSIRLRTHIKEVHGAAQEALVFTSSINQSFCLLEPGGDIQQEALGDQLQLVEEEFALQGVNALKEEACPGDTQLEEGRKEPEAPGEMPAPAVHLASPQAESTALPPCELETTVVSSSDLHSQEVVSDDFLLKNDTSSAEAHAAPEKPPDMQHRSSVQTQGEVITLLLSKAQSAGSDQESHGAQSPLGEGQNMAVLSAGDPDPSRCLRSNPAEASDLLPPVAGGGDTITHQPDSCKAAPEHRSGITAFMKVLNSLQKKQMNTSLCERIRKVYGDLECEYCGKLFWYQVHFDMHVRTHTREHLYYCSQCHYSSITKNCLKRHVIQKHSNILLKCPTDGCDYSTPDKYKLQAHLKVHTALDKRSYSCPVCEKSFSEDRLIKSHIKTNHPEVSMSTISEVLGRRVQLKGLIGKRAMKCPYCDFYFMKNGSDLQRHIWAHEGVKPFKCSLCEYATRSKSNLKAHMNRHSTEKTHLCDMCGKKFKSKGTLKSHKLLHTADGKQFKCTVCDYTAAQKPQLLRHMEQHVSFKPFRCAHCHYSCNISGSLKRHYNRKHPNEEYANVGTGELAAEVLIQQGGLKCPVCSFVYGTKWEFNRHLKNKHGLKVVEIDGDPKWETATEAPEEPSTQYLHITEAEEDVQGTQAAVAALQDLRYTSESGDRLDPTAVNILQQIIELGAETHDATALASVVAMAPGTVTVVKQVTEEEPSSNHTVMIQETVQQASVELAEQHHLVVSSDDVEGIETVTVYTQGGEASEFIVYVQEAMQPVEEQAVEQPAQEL
UniProt Q9P2E9: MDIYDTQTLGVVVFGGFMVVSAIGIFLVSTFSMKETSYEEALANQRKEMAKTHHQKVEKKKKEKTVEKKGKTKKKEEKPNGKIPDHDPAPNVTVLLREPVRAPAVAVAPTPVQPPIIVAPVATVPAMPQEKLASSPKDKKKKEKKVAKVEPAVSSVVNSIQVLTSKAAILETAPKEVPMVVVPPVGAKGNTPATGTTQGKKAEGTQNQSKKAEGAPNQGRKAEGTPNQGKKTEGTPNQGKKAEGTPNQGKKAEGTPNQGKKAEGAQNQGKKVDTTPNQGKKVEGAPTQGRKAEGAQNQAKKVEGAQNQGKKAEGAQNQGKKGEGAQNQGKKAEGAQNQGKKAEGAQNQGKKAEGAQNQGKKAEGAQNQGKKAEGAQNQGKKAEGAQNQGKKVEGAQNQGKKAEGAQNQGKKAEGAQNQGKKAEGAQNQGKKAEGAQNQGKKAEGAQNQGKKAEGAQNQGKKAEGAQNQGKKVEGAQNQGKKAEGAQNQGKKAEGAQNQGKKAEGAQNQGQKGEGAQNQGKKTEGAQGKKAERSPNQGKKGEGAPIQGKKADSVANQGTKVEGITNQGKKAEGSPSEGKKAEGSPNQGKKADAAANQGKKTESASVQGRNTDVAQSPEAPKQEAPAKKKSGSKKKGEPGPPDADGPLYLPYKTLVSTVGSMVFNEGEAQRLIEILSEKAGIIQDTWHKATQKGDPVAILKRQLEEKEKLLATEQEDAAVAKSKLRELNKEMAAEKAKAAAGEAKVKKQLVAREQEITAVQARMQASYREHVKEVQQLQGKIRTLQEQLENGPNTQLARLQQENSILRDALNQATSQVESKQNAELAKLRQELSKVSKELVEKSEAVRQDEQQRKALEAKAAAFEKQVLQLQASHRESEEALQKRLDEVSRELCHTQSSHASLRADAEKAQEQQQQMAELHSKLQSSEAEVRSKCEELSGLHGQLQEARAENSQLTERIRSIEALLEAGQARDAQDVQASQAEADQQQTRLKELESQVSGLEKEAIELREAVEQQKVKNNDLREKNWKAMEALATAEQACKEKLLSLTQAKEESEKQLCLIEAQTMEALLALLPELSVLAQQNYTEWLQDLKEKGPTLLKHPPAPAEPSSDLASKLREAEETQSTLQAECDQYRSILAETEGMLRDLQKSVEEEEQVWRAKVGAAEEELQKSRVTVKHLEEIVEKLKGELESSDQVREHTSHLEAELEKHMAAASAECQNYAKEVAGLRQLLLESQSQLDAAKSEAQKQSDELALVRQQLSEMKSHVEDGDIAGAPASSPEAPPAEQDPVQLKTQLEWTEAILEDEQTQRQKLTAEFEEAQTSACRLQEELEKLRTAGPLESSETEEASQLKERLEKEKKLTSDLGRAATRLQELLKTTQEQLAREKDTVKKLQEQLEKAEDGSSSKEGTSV
UniProt Q9UHK0: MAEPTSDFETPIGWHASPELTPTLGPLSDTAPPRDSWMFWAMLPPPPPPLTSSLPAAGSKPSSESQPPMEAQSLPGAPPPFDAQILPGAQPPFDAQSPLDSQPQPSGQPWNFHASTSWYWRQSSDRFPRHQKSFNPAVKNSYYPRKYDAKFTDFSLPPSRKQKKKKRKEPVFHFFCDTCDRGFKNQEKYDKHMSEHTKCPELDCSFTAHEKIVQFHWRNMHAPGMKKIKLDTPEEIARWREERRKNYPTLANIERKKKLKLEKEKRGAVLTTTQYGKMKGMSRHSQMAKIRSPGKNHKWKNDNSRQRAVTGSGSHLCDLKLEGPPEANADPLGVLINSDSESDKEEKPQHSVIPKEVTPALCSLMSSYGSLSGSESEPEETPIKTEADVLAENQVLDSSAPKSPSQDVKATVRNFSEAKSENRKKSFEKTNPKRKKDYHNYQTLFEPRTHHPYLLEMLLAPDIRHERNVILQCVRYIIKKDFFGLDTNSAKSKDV
UniProt Q9UBB4: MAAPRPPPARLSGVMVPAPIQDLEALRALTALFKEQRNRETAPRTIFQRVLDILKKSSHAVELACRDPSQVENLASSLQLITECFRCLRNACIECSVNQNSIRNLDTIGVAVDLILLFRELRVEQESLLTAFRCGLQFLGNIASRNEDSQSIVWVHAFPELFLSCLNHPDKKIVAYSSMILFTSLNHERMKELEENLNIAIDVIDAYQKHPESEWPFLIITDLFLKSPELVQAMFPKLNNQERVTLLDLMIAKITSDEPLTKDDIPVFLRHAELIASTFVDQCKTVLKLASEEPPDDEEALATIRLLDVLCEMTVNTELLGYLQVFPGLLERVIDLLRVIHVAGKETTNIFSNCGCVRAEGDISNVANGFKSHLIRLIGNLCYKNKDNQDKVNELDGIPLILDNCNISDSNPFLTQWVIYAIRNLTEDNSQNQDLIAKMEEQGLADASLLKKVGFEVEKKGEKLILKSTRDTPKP
UniProt Q9UBH6: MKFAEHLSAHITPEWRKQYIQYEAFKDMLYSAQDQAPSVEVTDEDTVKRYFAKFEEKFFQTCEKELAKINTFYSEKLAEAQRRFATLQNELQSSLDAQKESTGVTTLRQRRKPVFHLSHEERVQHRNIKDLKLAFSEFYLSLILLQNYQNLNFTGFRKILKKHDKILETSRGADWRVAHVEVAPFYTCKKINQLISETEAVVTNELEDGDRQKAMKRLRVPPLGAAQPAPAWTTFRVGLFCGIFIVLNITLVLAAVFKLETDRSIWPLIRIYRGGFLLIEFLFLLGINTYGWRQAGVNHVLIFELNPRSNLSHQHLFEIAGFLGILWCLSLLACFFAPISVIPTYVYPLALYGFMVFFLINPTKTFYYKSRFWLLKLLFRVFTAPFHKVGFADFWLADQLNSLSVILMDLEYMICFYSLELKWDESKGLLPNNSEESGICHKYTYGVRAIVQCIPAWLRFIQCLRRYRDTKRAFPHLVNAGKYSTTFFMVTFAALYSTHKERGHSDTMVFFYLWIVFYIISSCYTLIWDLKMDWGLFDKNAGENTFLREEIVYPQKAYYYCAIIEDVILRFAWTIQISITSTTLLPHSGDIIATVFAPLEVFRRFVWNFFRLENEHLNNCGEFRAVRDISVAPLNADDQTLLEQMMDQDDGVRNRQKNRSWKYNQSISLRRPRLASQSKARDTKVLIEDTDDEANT
UniProt Q9P275: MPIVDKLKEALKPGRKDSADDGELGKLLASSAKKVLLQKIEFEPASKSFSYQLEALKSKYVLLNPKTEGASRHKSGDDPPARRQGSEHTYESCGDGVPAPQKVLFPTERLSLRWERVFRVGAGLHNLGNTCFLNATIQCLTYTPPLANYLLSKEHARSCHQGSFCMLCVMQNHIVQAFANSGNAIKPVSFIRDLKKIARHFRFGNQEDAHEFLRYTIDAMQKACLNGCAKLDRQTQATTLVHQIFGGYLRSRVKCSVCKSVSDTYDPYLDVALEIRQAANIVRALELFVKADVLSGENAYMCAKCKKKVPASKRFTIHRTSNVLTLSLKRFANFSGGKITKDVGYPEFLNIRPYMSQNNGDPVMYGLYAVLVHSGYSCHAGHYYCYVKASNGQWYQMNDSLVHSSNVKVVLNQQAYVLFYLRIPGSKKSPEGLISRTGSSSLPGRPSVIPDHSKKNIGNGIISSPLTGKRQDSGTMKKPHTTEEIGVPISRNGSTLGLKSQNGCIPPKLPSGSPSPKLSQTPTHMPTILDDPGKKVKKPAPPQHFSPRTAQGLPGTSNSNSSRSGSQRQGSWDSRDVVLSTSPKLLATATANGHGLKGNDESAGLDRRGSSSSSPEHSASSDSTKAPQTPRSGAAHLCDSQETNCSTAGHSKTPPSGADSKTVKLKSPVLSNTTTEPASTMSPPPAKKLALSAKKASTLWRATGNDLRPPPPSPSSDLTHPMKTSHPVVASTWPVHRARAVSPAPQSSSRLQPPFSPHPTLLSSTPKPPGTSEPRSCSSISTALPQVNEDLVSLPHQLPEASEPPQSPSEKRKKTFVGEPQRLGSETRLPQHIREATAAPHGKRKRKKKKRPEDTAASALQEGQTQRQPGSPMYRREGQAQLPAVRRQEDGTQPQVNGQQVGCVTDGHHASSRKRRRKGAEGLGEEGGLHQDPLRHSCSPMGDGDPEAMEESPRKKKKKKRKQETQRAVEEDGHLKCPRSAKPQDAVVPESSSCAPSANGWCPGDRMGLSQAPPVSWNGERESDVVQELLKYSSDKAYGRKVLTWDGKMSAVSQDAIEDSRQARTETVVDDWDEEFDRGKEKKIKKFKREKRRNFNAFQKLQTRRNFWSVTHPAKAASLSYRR

Compound: CN[C@@H]1C[C@H]2O[C@@](C)([C@@H]1OC)n1c3ccccc3c3c4c(c5c6ccccc6n2c5c31)C(=O)NC4 [staurosporine]
Assay: log2 fold change of tryptic peptide abundance, ligand vs vehicle (limited proteolysis) (log2 ratio); higher = more trypsin-susceptible (destabilized)
Settings: ligand concentration: 20 uM; sample: K562 cleared lysate; digestion: 4 min, 22 C (HT-PELSA RT4min, Orbitrap Astral)

| Target | log2 fold change |
| --- | --- |
| ZNF639 (peptide sequence: SQALNVTAQQK, peptide start residue: 182) (UniProt Q9UID6) | 0.1 |
| EHD2 (peptide sequence: VVGTPEVLR, peptide start residue: 243) (UniProt Q9NZN4) | 0.172 |
| COX16 (peptide sequence: GPRPWEDPDLLQGR, peptide start residue: 83) (UniProt Q9P0S2) | -0.291 |
| SLC12A6 (peptide sequence: VHMTWTK, peptide start residue: 1045) (UniProt Q9UHW9) | -0.566 |
| STOML2 (peptide sequence: ESAINVAEGKK, peptide start residue: 212) (UniProt Q9UJZ1) | 0.407 |
| UniProt Q9P2N6 (peptide sequence: GDVDDPLLDMK, peptide start residue: 387) | -1.29 |
| POLK (peptide sequence: HTLDIFFK, peptide start residue: 863) (UniProt Q9UBT6) | 0.178 |
| ZFAT (peptide sequence: KPIISVVLTAHEAIPGATK, peptide start residue: 197) (UniProt Q9P243) | -0.275 |
| SLAIN2 (peptide sequence: LSLQGHPTDLQTSNVK, peptide start residue: 390) (UniProt Q9P270) | -0.178 |
| UniProt Q9NZQ9 (peptide sequence: FGYHFTQQGPR, peptide start residue: 315) | -0.0525 |
| UniProt Q9UGL1 (peptide sequence: ALIEESEMK, peptide start residue: 781) | -0.279 |
| NARF (peptide sequence: GTHSLDIK, peptide start residue: 448) (UniProt Q9UHQ1) | 0.16 |
| RRBP1 (peptide sequence: AQEQQQQMAELHSK, peptide start residue: 908) (UniProt Q9P2E9) | -0.454 |
| UniProt Q9P260 (peptide sequence: ERDQLLHILFNLIK, peptide start residue: 558) | 0.772 |
| AK3 (peptide sequence: AYEDQTKPVLEYYQK, peptide start residue: 175) (UniProt Q9UIJ7) | -0.53 |
| RERE (peptide sequence: VDSFFYILGYNPETR, peptide start residue: 263) (UniProt Q9P2R6) | -0.141 |
| FAM8A1 (peptide sequence: GPPTTAVPCPR, peptide start residue: 30) (UniProt Q9UBU6) | -0.19 |
| NUFIP1 (peptide sequence: LDTPEEIAR, peptide start residue: 230) (UniProt Q9UHK0) | -0.0899 |

| Target | log2 fold change |
| --- | --- |
| STMN3 (peptide sequence: EAHLAALR, peptide start residue: 148) (UniProt Q9NZ72) | -0.304 |
| MRPL35 (peptide sequence: EFVFCNK, peptide start residue: 146) (UniProt Q9NZE8) | 0.308 |
| UniProt Q9UI47 (peptide sequence: NLMNAVVQTVK, peptide start residue: 824) | -0.00591 |
| CCDC59 (peptide sequence: TVNSFTIPK, peptide start residue: 153) (UniProt Q9P031) | -0.155 |
| CFDP1 (peptide sequence: EDELWASFLNDVGPK, peptide start residue: 110) (UniProt Q9UEE9) | -0.294 |
| CNOT8 (peptide sequence: MKELFFEDSIDDAK, peptide start residue: 241) (UniProt Q9UFF9) | -0.15 |
| MED11 (peptide sequence: ATYSLANER, peptide start residue: 2) (UniProt Q9P086) | 0.452 |
| ATXN10 (peptide sequence: VTLLDLMIAK, peptide start residue: 244) (UniProt Q9UBB4) | 0.264 |
| XPR1 (peptide sequence: KPVFHLSHEER, peptide start residue: 112) (UniProt Q9UBH6) | 0.368 |
| UniProt Q9UK76 (peptide sequence: MASNIFGTPEENQASWAK, peptide start residue: 47) | -0.112 |
| IMPACT (peptide sequence: TEVEVEELPPIDHGIPITDRR, peptide start residue: 163) (UniProt Q9P2X3) | -0.415 |
| UniProt Q9UHA2 (peptide sequence: CIVEYQNK, peptide start residue: 34) | 0.055 |
| ZNF391 (peptide sequence: THTGENPYECSECGK, peptide start residue: 270) (UniProt Q9UJN7) | -0.586 |
| USP25 (peptide sequence: TLLEQFGDR, peptide start residue: 824) (UniProt Q9UHP3) | 0.444 |
| RCOR3 (peptide sequence: KEGNTEQPVQTSK, peptide start residue: 181) (UniProt Q9P2K3) | -0.272 |
| PRKAG2 (peptide sequence: VVDIYSKFDVINLAAEK, peptide start residue: 237) (UniProt Q9UGJ0) | -0.478 |
| DIP2B (peptide sequence: AQLAELELELSEGDITQK, peptide start residue: 22) (UniProt Q9P265) | -0.32 |
| USP36 (peptide sequence: AVEEDGHLK, peptide start residue: 968) (UniProt Q9P275) | 0.514 |

Some of the entries above, reformatted:
UniProt Q9UI47 (peptide sequence: NLMNAVVQTVK, peptide start residue: 824)
  log2 fold change: -0.00591
USP25 (peptide sequence: TLLEQFGDR, peptide start residue: 824) (UniProt Q9UHP3)
  log2 fold change: 0.444
